{"source": "patent EP0506748B1", "about": "“AMINO ACIDS, PEPTIDES OR DERIVATIVES THEREOF COUPLED TO FATS” (COMMONWEALTH SCIENTIFIC AND INDUSTRIAL RESEARCH ORGANISATION, priority 1989, dated 1991)", "system": "papain", "assay": "Protease treatment: digestion with papain, followed by HPLC", "format": "biochemical", "details": "activated papain, enzyme/substrate ratio 1:50, phosphate buffer pH 6.5; main product Z-Ala-OH / Z-Gly-OH", "data": [{"compound": "CC(NC(=O)OCc1ccccc1)C(=O)NC(CO)(CO)CO", "note": "(centres unmarked) [Z-Ala-TRIS]", "values": [{"measurement": "hydrolysis by papain", "result": "very slowly"}]}, {"compound": "O=C(CNC(=O)OCc1ccccc1)NC(CO)(CO)CO", "note": "[Z-Gly-TRIS]", "values": [{"measurement": "hydrolysis by papain", "result": "very slowly"}]}]}
